Experimental data reported in article PMC8741842.
No constants are given. Whether binding was seen depends on the method and setting. Binding seen in cells or lysates may run through a third protein. Some binding calls cover weakened binding; strength is not graded here.

Sequences of proteins named here, by UniProt entry; tags and fusion partners are left off. Residues count along the entry.
UniProt Q8R0I0, residues 18-805: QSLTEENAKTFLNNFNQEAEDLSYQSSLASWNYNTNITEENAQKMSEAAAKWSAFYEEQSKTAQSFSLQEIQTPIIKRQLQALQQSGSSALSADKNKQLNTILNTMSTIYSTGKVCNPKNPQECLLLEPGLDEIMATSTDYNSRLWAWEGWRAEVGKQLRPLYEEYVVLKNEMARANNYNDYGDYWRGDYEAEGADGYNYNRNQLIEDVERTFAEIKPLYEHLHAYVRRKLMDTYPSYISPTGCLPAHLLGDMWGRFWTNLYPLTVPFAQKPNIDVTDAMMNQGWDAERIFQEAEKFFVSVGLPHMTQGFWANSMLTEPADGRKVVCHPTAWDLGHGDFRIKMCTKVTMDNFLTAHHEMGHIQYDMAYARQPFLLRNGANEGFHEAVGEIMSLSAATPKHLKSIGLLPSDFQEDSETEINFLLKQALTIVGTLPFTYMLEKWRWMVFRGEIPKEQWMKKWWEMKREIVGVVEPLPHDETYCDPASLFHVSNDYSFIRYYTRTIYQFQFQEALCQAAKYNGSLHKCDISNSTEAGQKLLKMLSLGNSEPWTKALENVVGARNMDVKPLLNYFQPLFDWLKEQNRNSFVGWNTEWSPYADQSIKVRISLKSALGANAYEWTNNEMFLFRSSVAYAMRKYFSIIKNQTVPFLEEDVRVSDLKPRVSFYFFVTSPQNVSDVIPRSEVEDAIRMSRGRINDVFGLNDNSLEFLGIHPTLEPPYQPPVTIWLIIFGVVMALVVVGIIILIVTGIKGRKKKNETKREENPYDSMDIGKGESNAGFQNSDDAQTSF

B1: caveolin-1 (protein, UniProt P49817 1-178)
chain: MSGGKYVDSEGHLYTVPIREQGNIYKPNNKAMADEVTEKQVYDAHTKEIDLVNRDPKHLNDDVVKIDFEDVIAEPEGTHSFDGIWKASFTTFTVTKYWFYRLLSTIFGIPMALIWGIYFAILSFLHIWAVVPCIKSFLIEIQCISRVYSIYVHTFCDPLFEAIGKIFSNIRISTQKEI

Experiments:
[1] = target: T1, caveolin-1 (mouse (endogenous in myocardial tissue)) (UniProt P49817); assay: co-IP; mouse myocardial tissue lysed in RIPA buffer; supernatant with primary antibody or control IgG and protein A/G agarose beads overnight at 4°C; beads washed 3 times with PBS; Western blot of the IP product; both directions
T1 sequence: B1 chain

[2] = target: angiotensin-converting enzyme 2 (mouse (endogenous in myocardial tissue)) (UniProt Q8R0I0); assay: as above

Molecule | binding [1] | binding [2]
angiotensin-converting enzyme 2 (from UniProt Q8R0I0 18-805) | binds | 
B1 |  | binds
